Test results from PubChem BioAssay AID935 (National Center for Advancing Translational Sciences (NCATS), 2007).
Inconclusive results, whose numbers are uncertain, are shown with a selection of clear calls. Where the call is inconclusive, the potency comes from a doubtful curve fit. Active and inactive are the calls of the source. The call rests on the fitted dose curve.

Experiment: Confirmation Concentration-Response Assay for Identification of Small Molecule Agonists of Stat Signaling Pathway
Settings: SIE-bla cells, IL-6 STAT beta-lactamase reporter, 5 h
Excerpt: NIH Molecular Libraries Screening Centers Network [MLSCN] NIH Chemical Genomics Center [NCGC] MLSCN Grant: None NCGC Assay Overview: This assay is a retest of actives identified from the Stat signaling pathway assay (PubChem AID 446). The Stat assay is cell-based and measures Interleukin 6 (IL-6) mediated modulation of a beta-lactamase reporter gene controlled by a STAT inducible element (SIE-bla cells, Invitrogen). IL-6 is a cytokine that signals via the JAK/STAT pathway and is implicated in cancer and inflammation. SIE-bla cells are induced by IL-6 at 40 pM EC50 and inhibited by the pan JAK inhibitor, 2-(1,1-Dimethylethyl)-9-fluoro-3,6-dihydro-7H-benz[h]-imidaz[4,5-f]isoquinolin-7-one, at approximately 10 nM IC50. Plated cells were incubated overnight and on the following day, stimulated with 40 pM IL-6 for 5 hrs. The assay was stimulated with an EC50 of IL-6 to retest activators of STAT signaling.
NCGC Assay Protocol Summary: Cells were trypsinized, washed in assay medium (AM, OPTI MEM with 0.5% fetal bovine serum, 0.1 mM nonessential amino acids, 1 mM sodium pyruvate, 10mM HEPES pH 7.3, 100U/ml penicillin, and 100 ug/ml streptomycin) and suspended at […] in AM. Approximately 2500 cells in 5 uL/well was dispensed into 1536-well plates and the cells were incubated overnight at 37 C. 23 nL of compound were delivered by a pin tool and 1 uL of IL-6 (40 pM final concentration in AM) was added. After plates were incubated at 37 C for 5 hrs, 1uL of detector mix (LiveBLAzerTM, Invitrogen) was added, the plates incubated at room temperature for 2.5 hrs, and fluorescence intensity at 460 and 530 nm emissions was measured at 405 nm excitation by an Envision (Perkin Elmer).

Structure (SMILES)	Potency
CCOC(=O)c1cc2c(=O)n3cccc(C)c3nc2n(C)c1=N	active: 3.98 µM
O=C(O)c1c(Br)c(Br)c(Br)c(Br)c1C1c2ccc(O)cc2Oc2cc(O)ccc21	inconclusive: 7.94 µM [inhibitor, full curve]
CN(C)S(=O)(=O)c1ccc2c(c1)/C(=C/c1cc3c([nH]1)CCCC3)C(=O)N2	inconclusive: 2.51 µM [inhibitor, full curve]
O=C1Nc2ccc(I)cc2/C1=C/c1cc(Br)c(O)c(Br)c1	inconclusive: 12.6 µM [inhibitor, partial curve]
O=C(O)CCc1c2ccc(=O)c(O)c-2oc2c(O)c(O)ccc12	inconclusive: 10 µM [inhibitor, full curve]
COc1ccc(C[C@@H]2C(=O)N[C@H](C)C(=O)N(C)[C@@H]3Cc4ccc(cc4)Oc4cc(ccc4O)C[C@H](C(=O)N[C@@H](C)C(=O)N[C@H](C)C(=O)N2C)N(C)C3=O)cc1	inconclusive: 0.199 µM [inhibitor, full curve]
COc1cc(/C=C\C(=O)N2CCCCC2=O)cc(OC)c1OC	inconclusive: 12.6 µM [inhibitor, full curve]
CCCCSc1nc(N)c(C#N)c(-c2cccs2)c1C#N	inconclusive: 15.8 µM [inhibitor, partial curve]
CC1CCN(c2oc(-c3ccccc3Cl)nc2C#N)CC1	active: 6.31 µM
O=C1C(SCCO)=C(SCCO)C(=O)c2ccccc21	inconclusive: 6.31 µM [inhibitor, full curve]
CCOC(=O)c1[nH]c2cc3c(cc2c1NC(=O)CN1CCc2ccccc2C1)OCO3	inconclusive: 15.8 µM [inhibitor, partial curve]
Nc1ncnc2c1ncn2[C@@H]1O[C@H](COP(=O)(O)O)[C@@H](O)[C@@H]1O	active: 25.1 µM
CCN(CC)CCC[C@H](C)Nc1c2ccc(Cl)cc2nc2ccc(OC)cc12	active: 12.6 µM
CC1CCN(CC[S-])CC1.O.O.[Cl][Pt]	inconclusive: 25.1 µM [inhibitor, partial curve]
C=C1C(=O)O[C@@H]2[C@@H]1CC/C(C)=C\CC[C@@]1(C)O[C@H]21	inconclusive: 25.1 µM [inhibitor, partial curve]
Cc1ccc(S(=O)(=O)N2CCN(c3nc(C(C)C)c4c(c3C#N)CC(C)(C)OC4)CC2)cc1	active: 10 µM
Cn1c(NCc2ccccc2)nc2c1c(=O)n(Cc1ccc(Br)cc1)c(=O)n2C	inconclusive: 15.8 µM [inhibitor, partial curve]
OCc1ccncc1.OCc1ccncc1.[Cl][Pt]([Cl])([Cl])[Cl]	inconclusive: 10 µM [inhibitor, partial curve]
Cc1cc(=O)oc2c(CN3CCCCC3)c(O)c(Cl)cc12	active: 10 µM
O=C(Nc1ccc(N2CCN(C(=O)c3ccccc3)CC2)c(Cl)c1)c1ccc(Br)o1	inconclusive: 10 µM [inhibitor, full curve]
NS(=O)(=O)c1ccc(N=Nc2cc3ccccc3c(C(=O)O)c2O)cc1	inconclusive: 6.31 µM [inhibitor, full curve]
CN(C)c1ccc(-c2nn3c(-c4ccc(Cl)cc4)nnc3s2)cc1	active: 3.16 µM
C=C1C(=O)O[C@@H]2[C@H]3O[C@]3(C)CCC=C(C)CC[C@@H]12	inconclusive: 7.94 µM [inhibitor, full curve]
CSc1ncnc2c1ncn2CC(=O)[C@H]1CC[C@H]2[C@H]3CCC4=CC(=O)CC[C@@]4(C)[C@@H]3CC[C@@]12C	inconclusive: 2.51 µM [inhibitor, full curve]
NCCSc1nc2ccccc2s1	inconclusive: 7.94 µM [inhibitor, full curve]
COc1cccc2c1[C@H](CO)N1[C@H](C#N)[C@@H]3C[C@H](C(=O)O)[C@@H]([C@@H]1C2)N3C	inconclusive: 10 µM [inhibitor, full curve]

2 entries from above, set out differently.
Structure (SMILES) | Potency
O=C(Nc1ccc(N2CCN(C(=O)c3ccccc3)CC2)c(Cl)c1)c1ccc(Br)o1 | inconclusive: 10 µM [inhibitor, full curve]
NS(=O)(=O)c1ccc(N=Nc2cc3ccccc3c(C(=O)O)c2O)cc1 | inconclusive: 6.31 µM [inhibitor, full curve]
